The text below walks through data of PubChem BioAssay AID250 (DTP/NCI, 2004).

The list is a part of this screen's results and no random one: its compounds were picked by chemical class. Other doses and runs of a compound may be missing. T/C: endpoint of the treated group in % of that of the vehicle group. Where survival is the endpoint, this PubChem deposit counts one and a half times the control or more as active, and values a quarter to a half above the control carry no call in these data; other NCI protocols may use other cut-offs. Some entries show no survivor count and are marked so; the dose need not have been tolerated. Schedules are NCI's codes, read here as Q, the interval in days (D) or hours (H), X, the number of doses. Some schedule codes hold Z or #, which are not explained here. Marks such as (2×) give the number of equal values in this list. Some entries were tested several times; their values stand side by side, smallest first.

The test system of this experiment is BDF1 mice, L1210 leukemia sc, survival T/C. Briefly: NCI In Vivo Anticancer Drug Screen. Data for tumor model L1210 Leukemia (subcutaneous) in B6D2F1 (BDF1) mice. Particulars: T/C endpoint: median survival time, schedule: Q01DX Z (sc), higher T/C = longer survival. The method, then: The antitumor activity of compounds was measured in mice bearing transplantable tumors. Survival or tumor size were measured and the results are expressed as the measurement made in the treated group (T) divided by the measurement made in the vehicle treated control group (C). The tumor model used in this assay is L1210 Leukemia (subcutaneous) in B6D2F1 (BDF1) mice

[1] abbreviates: dose: 5.0 mg/kg/injection, vehicle: methylcellulose (MC).
The mark [2] stands for this setting: dose: 8.4 mg/kg/injection, vehicle: methylcellulose (MC).
[3] abbreviates: dose: 14.0 mg/kg/injection, vehicle: methylcellulose (MC).
Where [4] appears, read: dose: 23.0 mg/kg/injection, vehicle: methylcellulose (MC).
Where [5] appears, read: dose: 65.0 mg/kg/injection, vehicle: methylcellulose (MC).
Where [6] appears, read: dose: 39.0 mg/kg/injection, vehicle: methylcellulose (MC).

As to `COc1cccc(N(CCCl)CCCl)c1OC`, the T/C is, setting by setting: (dose: 1.8 mg/kg/injection, vehicle: methylcellulose (MC)) 100 % of control [survivor count not shown]; (dose: 3.0 mg/kg/injection, vehicle: methylcellulose (MC)) 95 % of control [survivor count not shown]; under setting [1], 90 % of control [survivor count not shown]; under setting [2], 95 % of control [survivor count not shown]; under setting [3], 90 % of control [survivor count not shown]; under setting [4], 90 % of control [survivor count not shown]. Besides, the T/C reads like this: under setting [5], 90 % of control [survivor count not shown]; (dose: 108.0 mg/kg/injection, vehicle: methylcellulose (MC)) 95 % of control [survivor count not shown].
Consider `ClCCN(CCCl)Cc1nc2ccccc2[nH]1`, for which the T/C is, setting by setting: under setting [1], 104 % of control [survivor count not shown]; under setting [2], 104 % of control [survivor count not shown]; (dose: 8.4 mg/kg/injection, vehicle: saline) 100 % of control [survivor count not shown]; under setting [3], 100 % of control [survivor count not shown] (2×); (dose: 14.0 mg/kg/injection, vehicle: saline) 111 % of control [survivor count not shown]; under setting [4], 105 [survivor count not shown] and 109 % of control [survivor count not shown]. The T/C is 105 % of control [survivor count not shown] (dose: 23.0 mg/kg/injection, vehicle: saline); 100 [survivor count not shown] and 111 % of control [survivor count not shown] under setting [6]; 111 % of control [survivor count not shown] (dose: 39.0 mg/kg/injection, vehicle: saline); 104 % of control [survivor count not shown] under setting [5]; 100 % of control [survivor count not shown] (dose: 65.0 mg/kg/injection, vehicle: saline).
Turning to `ClCCN(CCCl)Cc1nc2ccc(Cl)cc2[nH]1`, the T/C is, setting by setting: under setting [3], 100 % of control [survivor count not shown]; under setting [4], 100 % of control [survivor count not shown]; under setting [6], 100 % of control [survivor count not shown]; under setting [5], 88 % of control [survivor count not shown].
For the compound `O=C(O)CCOc1ccccc1N(CCCl)CCCl`, the T/C reads like this: (dose: 3.75 mg/kg/injection, vehicle: carboxymethylcellulose (CMC)) 88 % of control [survivor count not shown]; (dose: 7.5 mg/kg/injection, vehicle: carboxymethylcellulose (CMC)) 88 % of control [survivor count not shown]; (dose: 15.0 mg/kg/injection, vehicle: carboxymethylcellulose (CMC)) 88 % of control [survivor count not shown]; (dose: 18.7 mg/kg/injection, vehicle: carboxymethylcellulose (CMC)) 100 % of control [survivor count not shown]; (dose: 30.0 mg/kg/injection, vehicle: carboxymethylcellulose (CMC)) 88 % of control [survivor count not shown]; (dose: 37.5 mg/kg/injection, vehicle: carboxymethylcellulose (CMC)) 100 % of control [survivor count not shown]. In addition, the T/C was 94 % of control [survivor count not shown] (dose: 65.0 mg/kg/injection, vehicle: carboxymethylcellulose (CMC)); 100 % of control [survivor count not shown] (dose: 75.0 mg/kg/injection, vehicle: carboxymethylcellulose (CMC)); 100 % of control [survivor count not shown] (dose: 108.0 mg/kg/injection, vehicle: carboxymethylcellulose (CMC)); 112 % of control [survivor count not shown] (dose: 150.0 mg/kg/injection, vehicle: carboxymethylcellulose (CMC)); 111 % of control [survivor count not shown] (dose: 180.0 mg/kg/injection, vehicle: carboxymethylcellulose (CMC)); 111 % of control [survivor count not shown] (dose: 300.0 mg/kg/injection, vehicle: carboxymethylcellulose (CMC)).
